# Results: PubChem BioAssay (EPA / NIEHS)
# By UniProt entry, the sequences of proteins in these tests, tags left out. Where a name states a change or a piece, a line headed by the entry shows the natural chain unless it says otherwise.
# UniProt P17706: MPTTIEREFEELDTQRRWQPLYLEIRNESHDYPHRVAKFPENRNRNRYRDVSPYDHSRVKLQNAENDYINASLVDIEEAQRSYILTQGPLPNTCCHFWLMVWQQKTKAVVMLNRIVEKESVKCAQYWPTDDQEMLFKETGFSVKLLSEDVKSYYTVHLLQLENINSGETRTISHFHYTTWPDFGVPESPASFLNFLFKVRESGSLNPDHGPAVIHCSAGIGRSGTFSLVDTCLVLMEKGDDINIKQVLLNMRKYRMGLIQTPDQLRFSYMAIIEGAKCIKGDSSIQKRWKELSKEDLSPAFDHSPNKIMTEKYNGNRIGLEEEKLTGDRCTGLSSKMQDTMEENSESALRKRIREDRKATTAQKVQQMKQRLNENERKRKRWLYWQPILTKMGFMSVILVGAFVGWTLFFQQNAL
# Inconclusive results, whose numbers are uncertain, are shown with a selection of clear calls. Where the call is inconclusive, the potency comes from a doubtful curve fit. The source made the active and inactive calls. Rule for the calls: active = hit-call score of the fitted dose curve at least 0.9, where 1 is the maximum; inconclusive = response in the unintended direction; inactive = score below 0.9.
# Molecular target: human Protein Tyrosine Phosphatase Non-receptor Type 2 (PTPN2), PTPN2 (gene 5771) (UniProt P17706)
# Experiment: NVS_ENZ_hPTPN2: NovaScreen (NVS) Enzymatic Assay for human Protein Tyrosine Phosphatase Non-receptor Type 2 (PTPN2) (AID 2283207)
# Procedure: NVS_ENZ_hPTPN2 is a biochemical, single-readout assay that uses extracted gene-proteins in a cell-free assay. Measurements were taken 1 hour after chemical dosing in a 384-well plate.NVS_ENZ_hPTPN2 is one of one assay component(s) measured or calculated from the NVS_ENZ_hPTPN2 assay. It is designed to make measurements of enzyme activity, a form of enzyme reporter, as detected with fluorescence intensity signals by Fluorescence and electrophoretic mobility shift technology.Data from the assay component NVS_ENZ_hPTPN2 was analyzed into 1 assay endpoint. This assay endpoint, NVS_ENZ_hPTPN2, was analyzed in the positive analysis fitting direction relative to DMSO as the negative control and baseline of activity. Using a type of enzyme reporter, loss-of-signal activity can be used to understand changes in the enzymatic activity as they relate to the gene PTPN2. Furthermore, this assay endpoint can be referred to as a primary readout, because this assay has produced multiple assay endpoints where this one serves a enzymatic activity function. To generalize the intended target to other relatable targets, this assay endpoint is annotated to the phosphatase intended target family, where the subfamily is non-receptor tyrosine phosphatase.
# Binding assays used specific radioligands (tritiated, iodinated) with non-radioactive competitive displacement ligands in agonist or antagonist protocols (as indicated) and various reference compounds and inhibitors to titrate specific binding to receptors and transporters. Most enzyme assays (CYPs, kinases, phosphatases, proteases, HDACs) used recombinant protein and specific substrates (fluorescence mostly, some colorimetric and radioactive) and inhibitors, followed by a biochemical separation of substrate and product. All assays for the biochemical HTS were initially run in duplicate at a single concentration (10 uM for CYP450 assays and 25 uM for all others). […] Each assay was run with positive and negative controls, and concurrent controls on every plate. The follow-up (secondary) screen tested active chemical-pairs in concentration series, as well as a few additional assays not tested in the primary screen, some selected negative inactives, and several cases re-run in the concentration series for confirmatory purposes.
SMILES,outcome,AC50
O=C(O)COc1nc(Cl)c(Cl)cc1Cl,inactive,–
O=C(O)C(F)(F)C(F)(F)C(F)(F)C(F)(F)C(F)(F)F,inactive,–
Oc1ccccc1-c1ccccc1,–,inconclusive: 5.86 µM
CN1CSC(=S)N(C)C1,inactive,–
Cc1c(COC(=O)[C@@H]2[C@H](/C=C(\Cl)C(F)(F)F)C2(C)C)cccc1-c1ccccc1,–,inconclusive: 25 µM
CC(C)(C)OOC(C)(C)C,–,inconclusive: 13.1 µM
COc1ccc(C(c2ccc(OC)cc2)C(Cl)(Cl)Cl)cc1,–,inconclusive: 3.94 µM
CN/C(=N\[N+](=O)[O-])NCc1cnc(Cl)s1,inactive,–
O=C1C2CC=CCC2C(=O)N1SC(Cl)(Cl)Cl (stereo not drawn),–,active: 46.9 µM
CC1(C)C(C=C(Cl)Cl)C1C(=O)OC(C#N)c1cccc(Oc2ccccc2)c1 (stereo not drawn),–,inconclusive: 25 µM
Cc1cc(C2CC2)nc(Nc2ccccc2)n1,–,inconclusive: 0.062 µM
O=C1c2ccccc2C(=O)N1SC(Cl)(Cl)Cl,inactive,–
CC[C@H](C)[C@H]1O[C@]2(C=C[C@@H]1C)C[C@@H]1C[C@@H](C/C=C(\C)[C@@H](O[C@H]3C[C@H](OC)[C@@H](O[C@H]4C[C@H](OC)[C@@H](O)[C@H](C)O4)[C@H](C)O3)[C@@H](C)/C=C/C=C3\CO[C@@H]4[C@H](O)C(C)=C[C@@H](C(=O)O1)[C@]34O)O2 (tested in a mixture with another compound),–,active: 41.1 µM
CCc1cccc(CC)c1N(COC)C(=O)CCl,inactive,–
N#Cc1c(Cl)c(Cl)c(Cl)c(C#N)c1Cl,–,inconclusive: 25 µM
CC(C)(C)C(O)C(Oc1ccc(Cl)cc1)n1cncn1 (stereo not drawn),inactive,–
CCN(CC)C(=O)C(C)Oc1cccc2ccccc12 (stereo not drawn),inactive,–
Oc1ccc(Cl)cc1Cc1ccccc1,–,inconclusive: 25 µM
CNC(=S)S,inactive,–
CCCN(CCC)c1c([N+](=O)[O-])cc(S(N)(=O)=O)cc1[N+](=O)[O-],–,inconclusive: 26.4 µM
Nc1c(Cl)cc([N+](=O)[O-])cc1Cl,inactive,–
COP(=S)(OC)Oc1ccc([N+](=O)[O-])cc1,–,inconclusive: 25 µM
Cn1cc(-c2ccccc2)c(=O)c(-c2cccc(C(F)(F)F)c2)c1,–,active: 0.115 µM
COc1nc(C)nc(NC(=O)NS(=O)(=O)c2ccccc2Cl)n1,inactive,inconclusive: 0.551 µM
COc1ccc(C(=CC(=O)N2CCOCC2)c2ccc(Cl)cc2)cc1OC,–,inconclusive: 6.8 µM
CC1=C2C[C@H]3[C@@H](CC=C4C[C@@H](O)CC[C@@]43C)[C@@H]2CC[C@]12O[C@@H]1C[C@H](C)CN[C@H]1[C@H]2C,–,inconclusive: 12.5 µM
O=[N+]([O-])c1cc(C(F)(F)F)c(Cl)c([N+](=O)[O-])c1Nc1ncc(C(F)(F)F)cc1Cl,–,inconclusive: 46.2 µM

# Rewritten tab-delimited: part of the list above
SMILES	outcome	AC50
O=C(O)COc1nc(Cl)c(Cl)cc1Cl	inactive	–
O=C(O)C(F)(F)C(F)(F)C(F)(F)C(F)(F)C(F)(F)F	inactive	–
